The list shows only some results of the screen, not a fair sample: it is rich in T/C values a quarter to a half above the control, in often repeated tests (any T/C) and in doses without a T/C. Further doses and runs are listed elsewhere. T/C: endpoint of the treated group in % of that of the vehicle group. Some doses have a count of surviving animals in place of a T/C: the source files T/C as zero there, which appears to mark a toxic dose or a test without result, not a measured value. Some doses without a T/C left all or most animals alive at the check, yet need not have been tolerated: survival well below the control is almost never listed, so the zero probably covers shortened survival too. Survivors were counted at the toxicity check, usually on the fifth day, unless a day is given; later deaths do not show. Schedule codes are those of the source, read here as Q, the interval in days (D) or hours (H), X, the number of doses. Where survival is the endpoint, this PubChem deposit counts one and a half times the control or more as active, and values a quarter to a half above the control carry no call in these data; other NCI protocols may use other cut-offs. Some T/C values are followed by the survivors on the day toxicity was checked, most often the fifth; where none is given, no animal had died by that day. Some doses were run more than once; the values are given in rising order.
System: P388 leukemia ip, CD2F1 mice, survival T/C
Assay: NCI In Vivo Anticancer Drug Screen. Data for tumor model P388 Leukemia (intraperitoneal) in CD2F1 (CDF1) mice
Settings: T/C endpoint: median survival time, higher T/C = longer survival
[1] = dose: 64.0 mg/kg/injection, schedule: Q01DX009 (ip), vehicle: Klucel (hydroxypropylcellulose) (HPC)
[2] = dose: 100.0 mg/kg/injection, schedule: Q01DX009 (ip), vehicle: saline with Tween-80
[3] = dose: 200.0 mg/kg/injection, schedule: Q01DX009 (ip), vehicle: saline with Tween-80

In the case of `O=C(CCl)NC(Cc1ccc(N(CCCl)CCCl)cc1)C(=O)O` (stereo not drawn), the T/C (dose: 2.0 mg/kg/injection, schedule: Q01DX009 (ip), vehicle: Klucel (hydroxypropylcellulose) (HPC)) is reported as 105, 113, 134, 151 % of control, the T/C (dose: 4.0 mg/kg/injection, schedule: Q01DX009 (ip), vehicle: Klucel (hydroxypropylcellulose) (HPC)) is reported as 106, 113, 127, 150 % of control and the T/C (dose: 8.0 mg/kg/injection, schedule: Q01DX009 (ip), vehicle: Klucel (hydroxypropylcellulose) (HPC)) is reported as 116, 127, 132, 180 % of control [5 of 6 alive]. The T/C (dose: 16.0 mg/kg/injection, schedule: Q01DX001 (ip), vehicle: Klucel (hydroxypropylcellulose) (HPC)) was 128 % of control, the T/C (dose: 16.0 mg/kg/injection, schedule: Q01DX009 (ip), vehicle: Klucel (hydroxypropylcellulose) (HPC)) was 117, 141, 153, 243 % of control and the T/C (dose: 32.0 mg/kg/injection, schedule: Q01DX001 (ip), vehicle: Klucel (hydroxypropylcellulose) (HPC)) was 131 % of control. For the same compound, the T/C (dose: 32.0 mg/kg/injection, schedule: Q01DX009 (ip), vehicle: Klucel (hydroxypropylcellulose) (HPC)) was 115 [5 of 6 alive], 142, 182, 185 % of control, the T/C (dose: 64.0 mg/kg/injection, schedule: Q01DX001 (ip), vehicle: Klucel (hydroxypropylcellulose) (HPC)) was 146 % of control and the T/C [1] was 142 % of control. The survivor count [1] was 5 of 6, the T/C (dose: 128.0 mg/kg/injection, schedule: Q01DX001 (ip), vehicle: Klucel (hydroxypropylcellulose) (HPC)) was 146 % of control and the survivor count (dose: 256.0 mg/kg/injection, schedule: Q01DX001 (ip), vehicle: Klucel (hydroxypropylcellulose) (HPC)) was 0 of 6.
`CN(C)N=Nc1cccc(C(F)(F)F)c1` was tested, and the T/C (dose: 100.0 mg/kg/injection, schedule: Q01DX007 (ip), vehicle: saline) was 128 % of control, the T/C (dose: 200.0 mg/kg/injection, schedule: Q01DX007 (ip), vehicle: saline) was 139 % of control and the survivor count (dose: 200.0 mg/kg/injection, schedule: Q01DX008 (ip), vehicle: saline with Tween-80) was 3 of 6. The survivor count (dose: 400.0 mg/kg/injection, schedule: Q01DX007 (ip), vehicle: saline) was 5 of 6.
`Cc1cc(=O)c2c(ccc3c(=O)cc(C)[nH]c32)[nH]1` was tested, and the survivor count (dose: 60.0 mg/kg/injection, schedule: Q01DX005 (ip), vehicle: saline with Tween-80) was 3 of 6 and the survivor count (dose: 240.0 mg/kg/injection, schedule: Q01DX005 (ip), vehicle: saline with Tween-80) was 3 of 6.
`CCOc1ccc(C(C#N)N(C)C)cc1OCC` (stereo not drawn) was tested, and the survivor count [2] was 3 of 6 and the survivor count [3] was 0 of 6.
`CCOC(=O)c1cc(CC)sc1N` was tested, and the survivor count (dose: 400.0 mg/kg/injection, schedule: Q01DX009 (ip), vehicle: saline with Tween-80) was 3 of 6.
`CCOCN(COCC)c1ccc(Cl)cc1` was tested, and the T/C (dose: 50.0 mg/kg/injection, schedule: Q01DX009 (ip), vehicle: saline with Tween-80) was 126 % of control and the T/C [2] was 145 % of control.
`CCN(CC)CC(C)Nc1ccc([N+](=O)[O-])c2sc3ccccc3c(=O)c12` (stereo not drawn) was tested, and the T/C (dose: 12.5 mg/kg/injection, schedule: Q01DX009 (ip), vehicle: saline) was 126 % of control, the T/C (dose: 25.0 mg/kg/injection, schedule: Q01DX009 (ip), vehicle: saline) was 147 % of control and the T/C (dose: 50.0 mg/kg/injection, schedule: Q04DX003 (ip), vehicle: saline with Tween-80) was 130 % of control. For the same compound, the survivor count [2] was 6 of 6, the survivor count [3] was 6 of 6 and the survivor count (dose: 300.0 mg/kg/injection, schedule: Q04DX003 (ip), vehicle: saline with Tween-80) was 6 of 6.
`CCOc1ccc(C(C)c2cc3c(cc2OCC(=O)O)OCO3)cc1` (stereo not drawn) was tested, and the survivor count (dose: 200.0 mg/kg/injection, schedule: Q01DX005 (ip), vehicle: saline with Tween-80) was 4 of 6.
With `O=C(CCN1CCC23c4c5ccc(O)c4OC2C(O)C=CC3C1C5)c1ccccc1` (stereo not drawn) the survivor count (dose: 200.0 mg/kg/injection, schedule: Q01DX005 (ip), vehicle: Klucel (hydroxypropylcellulose) (HPC)) was 0 of 5.
`O=C1C=CC(=Nc2ccc3c(c2)C(Br)c2ccccc2-3)O1` (stereo not drawn) was tested, and the T/C (dose: 6.25 mg/kg/injection, schedule: Q01DX009 (ip), vehicle: saline with Tween-80) was 127 % of control and the survivor count (dose: 25.0 mg/kg/injection, schedule: Q01DX009 (ip), vehicle: saline with Tween-80) was 3 of 6.

Reference: PubChem BioAssay AID330 (DTP/NCI, 2004)
